Source: PMC6692315

Tests used:
[1] = target: T1, Human 3XFLAG:GEN1 (human) (UniProt Q17RS7); experiment: co-IP; reciprocal: FLAG-tagged protein immunoprecipitated with magnetic FLAG-M2 beads (Sigma), 2 hours at 4 degrees Celsius, from transfected HEK-293T lysate; 0.5% CHAPS buffer (10 mM Tris/Cl pH 7.5, 150 mM NaCl, 0.5 mM EDTA); three washes; Western blot
T1 sequence: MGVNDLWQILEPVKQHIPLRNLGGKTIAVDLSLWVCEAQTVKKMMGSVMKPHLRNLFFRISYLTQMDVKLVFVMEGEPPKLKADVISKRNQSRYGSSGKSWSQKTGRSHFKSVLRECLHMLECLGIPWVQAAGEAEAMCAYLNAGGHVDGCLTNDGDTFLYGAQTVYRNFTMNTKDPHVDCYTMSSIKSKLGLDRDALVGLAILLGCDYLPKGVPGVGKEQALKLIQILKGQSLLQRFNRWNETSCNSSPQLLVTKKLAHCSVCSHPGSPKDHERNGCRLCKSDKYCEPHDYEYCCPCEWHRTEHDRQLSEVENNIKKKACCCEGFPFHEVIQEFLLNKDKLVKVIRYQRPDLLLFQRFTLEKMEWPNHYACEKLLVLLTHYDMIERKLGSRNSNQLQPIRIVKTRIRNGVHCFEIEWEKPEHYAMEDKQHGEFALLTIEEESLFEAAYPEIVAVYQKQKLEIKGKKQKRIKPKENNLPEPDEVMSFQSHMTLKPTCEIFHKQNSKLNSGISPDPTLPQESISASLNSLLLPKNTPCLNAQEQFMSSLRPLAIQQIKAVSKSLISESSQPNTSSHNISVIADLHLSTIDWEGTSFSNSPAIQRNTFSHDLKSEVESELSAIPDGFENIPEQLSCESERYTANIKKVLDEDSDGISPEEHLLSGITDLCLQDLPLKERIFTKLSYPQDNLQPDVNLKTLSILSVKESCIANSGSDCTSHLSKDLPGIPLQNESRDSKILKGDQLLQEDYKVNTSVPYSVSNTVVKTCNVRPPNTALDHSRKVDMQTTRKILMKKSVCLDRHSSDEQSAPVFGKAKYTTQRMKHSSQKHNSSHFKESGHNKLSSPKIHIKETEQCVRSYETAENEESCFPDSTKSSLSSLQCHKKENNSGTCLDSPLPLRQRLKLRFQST

[2] = target: T2, C. elegans GEN-1-3XFLAG (C. elegans) (UniProt Q22418); experiment: as above
T2 sequence: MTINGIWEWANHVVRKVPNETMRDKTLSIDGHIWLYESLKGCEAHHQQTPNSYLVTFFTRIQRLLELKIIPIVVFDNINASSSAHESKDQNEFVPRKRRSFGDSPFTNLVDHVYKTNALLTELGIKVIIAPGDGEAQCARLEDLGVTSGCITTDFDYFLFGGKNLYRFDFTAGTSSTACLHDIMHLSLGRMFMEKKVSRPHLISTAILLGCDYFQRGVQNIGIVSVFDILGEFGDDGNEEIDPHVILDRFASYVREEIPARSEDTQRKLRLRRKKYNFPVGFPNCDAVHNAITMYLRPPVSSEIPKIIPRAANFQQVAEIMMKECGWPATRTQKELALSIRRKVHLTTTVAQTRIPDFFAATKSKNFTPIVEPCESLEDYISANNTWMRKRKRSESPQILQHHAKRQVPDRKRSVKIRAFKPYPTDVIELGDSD

[3] = target: GFP-WDR-23B (C. elegans WDR-23 isoform B) (C. elegans); experiment: co-IP; GFP-tagged protein immunoprecipitated with GFP trap magnetic agarose beads (Chromotek) from transfected HEK-293T lysate; 0.5% CHAPS buffer (10 mM Tris/Cl pH 7.5, 150 mM NaCl, 0.5 mM EDTA); Western blot
[4] = target: GFP-WDR23 isoform II (human) (human); experiment: as above

In the case of GFP-WDR23 isoform II (human), the binding [1] is reported as “binds”.

In the case of “GFP-WDR-23B (C. elegans WDR-23 isoform B)”, the binding [2] is reported as “binds”.

B1: C. elegans GEN-1-3XFLAG (protein, UniProt Q22418 1-434)
chain: T2 sequence
In the case of B1, the binding [3] is reported as “binds”.

B2: Human 3XFLAG:GEN1 (protein, UniProt Q17RS7 1-908)
chain: T1 sequence
In the case of B2, the binding [4] is reported as “binds”.

These are yes or no findings as the source states them, for the method shown. Binding seen in cells or lysates may run through a third protein. Binding can be weak; no strength is given. Sequences can lack the tags named with a protein.
